Measured data: PubChem BioAssay AID504808 (Drosophila RNAi Screening Center, 2011)

Test: 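Chromatin factors that keep E2F targets switched off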 (primary screen)
Cells: Drosophila S2 cells
Reagents: long dsRNA against Drosophila genes
Measurement: 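Firefly luciferase driven by E2F sites, normalised to Renilla luciferase on the same minimal promoter, measured by plate reader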
Scale: E2F firefly: higher = more E2F reporter activity; Renilla normaliser: higher = more normaliser reporter signal
Hit rule: 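Called active if the normalised E2F reporter went up by over 50%; the cutoff is arbitrary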
The screen tested about 21,000 reagents; shown is an unselected part of those with a known target gene and a result. In the full data, 18 (0.084%) got an active call. 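Raw counts without plate normalisation, one of two replicates; the ratio scores behind the calls were not deposited.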 Unmarked entries are inactive. Names joined by + are all predicted targets of the reagent. Not stated in the record: the amount of reagent, the time to read-out.

| Gene | DRSC id | E2F firefly, rep 1 | Renilla normaliser, rep 1 |
| --- | --- | --- | --- |
| CG7786 | DRSC07045 | 1.28e5 | 4301 |
| Sytbeta (Synaptotagmin beta) | DRSC10009 | 1.44e5 | 8739 |
| Sytbeta (Synaptotagmin beta) | DRSC10351 | 1.81e5 | 8312 |
| CG5886 | DRSC15908 | 1786 | 884 |
| CG34278 | DRSC13208 | 89307 | 2757 |
| beat-Va (beaten path Va) | DRSC14192 | 1.29e5 | 5432 |
| CG1513 | DRSC05194 | 1.31e5 | 4960 |
| CG1513 | DRSC06553 | 56261 | 3595 |
| CG1513 | DRSC06554 | 1.50e5 | 4919 |
| CG12825 | DRSC06174 | 1.42e5 | 4210 |
| nau (nautilus) | DRSC17011 | 1.02e5 | 5848 |
| S-Lap2 (Sperm-Leucylaminopeptidase 2) | DRSC10628 | 1.05e5 | 3770 |
| CG17380 | DRSC15230 | 1.10e5 | 5500 |
| Rbf (Retinoblastoma-family protein) | DRSC18704 | 4290 (active) | 1016 |
| CG42713 | DRSC01050 | 1.39e5 | 6482 |
| Or47a (Odorant receptor 47a) | DRSC07491 | 1.06e5 | 4701 |
| CG8745 | DRSC11033 | 78623 | 3187 |
| CG8745 | DRSC11034 | 1.03e5 | 4917 |
| CG14270 | DRSC17913 | 1.27e5 | 5516 |
| Pfdn6 (Prefoldin 6) | DRSC10915 | 1.20e5 | 7377 |
| CG14966 | DRSC08425 | 97542 | 3797 |
| Dnaaf5 (Dynein axonemal assembly factor 5) | DRSC13032 | 95204 | 3296 |
| kek5 (kekkon 5) | DRSC19438 | 1.36e5 | 7232 |
| CG15212 | DRSC10212 | 98238 | 4058 |
| CG2604 | DRSC12313 | 1.27e5 | 4840 |
| Cpr78Cb (Cuticular protein 78Cb) | DRSC11847 | 1.34e5 | 6454 |
| aqz (aaquetzalli) | DRSC16570 | 1.19e5 | 7298 |
| CG13473 | DRSC10017 | 76820 | 3589 |
| CG9849 | DRSC04573 | 1.12e5 | 3929 |
| Neurl4 (Neuralized E3 ubiquitin protein ligase 4) | DRSC10638 | 72648 | 3497 |
| CG18636 | DRSC02685 | 1.08e5 | 4441 |
| Gmppb (GDP-mannose pyrophosphorylase B) | DRSC12169 | 82321 | 3249 |
| CG13995 | DRSC00907 | 99040 | 4865 |
| CG13995 | DRSC02327 | 1.56e5 | 4798 |
| CG3860 | DRSC04425 | 93933 | 3403 |
| CG4465 | DRSC15584 | 1.35e5 | 7077 |
| Prosalpha1R + Prosalpha1 | DRSC07515 | 2179 | 231 |
| Tcs4 (Threonyl-carbamoyl synthesis 4) | DRSC19587 | 1.65e5 | 5614 |
| CG8620 | DRSC11020 | 96509 | 3630 |
| CG3330 | DRSC15477 | 1729 | 920 |
| CG12730 | DRSC17885 | 1.17e5 | 4956 |
| ZnT86D (Zinc transporter 86D) | DRSC16091 | 1.63e5 | 7276 |
| Elovl7 (ELOVL fatty acid elongase 7) | DRSC15452 | 1.41e5 | 6954 |
| Polr2A (RNA polymerase II subunit A) | DRSC20280 | 4724 | 672 |
| CG32202 | DRSC09989 | 1.52e5 | 8243 |
| CG3092 | DRSC04336 | 74521 | 3281 |
| RpLP0-like (Ribosomal protein LP0-like) | DRSC06424 | 3173 | 261 |
| DIP-beta (Dpr-interacting protein beta) | DRSC20461 | 80240 | 2493 |
| DIP-beta (Dpr-interacting protein beta) | DRSC20489 | 1.33e5 | 6301 |
| DIP-beta (Dpr-interacting protein beta) | DRSC20490 | 1.41e5 | 5516 |
| DIP-beta (Dpr-interacting protein beta) | DRSC20505 | 1.30e5 | 6913 |
| CG9973 (retired record) | DRSC08646 | 90933 | 3963 |
| Marf1 (Meiosis regulator and mRNA stability factor 1) | DRSC03747 | 97884 | 4120 |
| Marf1 (Meiosis regulator and mRNA stability factor 1) | DRSC03774 | 1.22e5 | 4177 |
| CG32280 | DRSC08024 | 1.24e5 | 4348 |
| CG32112 | DRSC09815 | 1.16e5 | 6113 |
| Cyp6a2 (Cytochrome P450 6a2) | DRSC05014 | 1.03e5 | 3595 |

An excerpt from the list above, as a working copy:
| Gene | DRSC id | E2F firefly, rep 1 | Renilla normaliser, rep 1 |
| --- | --- | --- | --- |
| CG9849 | DRSC04573 | 1.12e5 | 3929 |
| Neurl4 (Neuralized E3 ubiquitin protein ligase 4) | DRSC10638 | 72648 | 3497 |
| CG18636 | DRSC02685 | 1.08e5 | 4441 |
